{"sequences": {"note": "Chains of the proteins cited; added tags and fusions are not shown. Residues count along the entry.", "UniProt P30532, residues 23-468": "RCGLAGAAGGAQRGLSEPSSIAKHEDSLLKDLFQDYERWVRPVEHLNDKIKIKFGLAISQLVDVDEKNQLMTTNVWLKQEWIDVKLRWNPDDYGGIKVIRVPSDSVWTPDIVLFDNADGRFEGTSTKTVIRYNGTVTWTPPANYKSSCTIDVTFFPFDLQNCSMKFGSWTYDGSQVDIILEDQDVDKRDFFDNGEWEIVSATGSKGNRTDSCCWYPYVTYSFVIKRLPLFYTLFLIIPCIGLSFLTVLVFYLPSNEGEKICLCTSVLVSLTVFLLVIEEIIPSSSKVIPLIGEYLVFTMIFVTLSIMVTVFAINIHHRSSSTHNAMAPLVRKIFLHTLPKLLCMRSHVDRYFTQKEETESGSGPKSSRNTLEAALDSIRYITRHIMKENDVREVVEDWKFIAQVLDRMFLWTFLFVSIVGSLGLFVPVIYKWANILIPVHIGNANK"}, "source": "paper PMC7555382", "target": "endogenous EGFR of H1975 cells (EGFR mutant) (human (endogenous in H1975)) (UniProt P00533)", "assay": "co-IP; lysates of untransfected A549 and H1975 cells immunoprecipitated with anti-α5 or anti-EGFR antibodies, western blot; A549 also after 8 h serum starvation and 1 h EGF or nicotine, which enhanced the association", "note": "These are yes or no findings as the source states them, for the method shown. In cells and extracts the contact can be indirect. Binding calls can cover weak binding; strength is not graded here.", "data": [{"substance": "endogenous α5-nAChR (nicotinic acetylcholine receptor subunit α5) (from UniProt P30532 23-468)", "values": [{"measurement": "binding", "value": "binds"}]}]}
